The nature of the assay: qHTS Assay to Find Inhibitors of Chronic Active B-Cell Receptor Signaling. The note with it: ABC-DLBCL IkBa-CBG/CBR reporter, luminescence ratio (green luciferase fused to IkBa over red control in TMD8 lymphoma cells), 4 h. The gist of the method:
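Cell line TMD8 (human ABC DLBCL), stably expressing tet-inducible CBG68-IkBa fusion and CBR; IMDM/0.5% FBS; cpd up to 46 uM; dox induction, 4 h, 37C/5% CO2; dual luminescence; green/red ratio; MG132 control.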

Setting [1] is: measured here: CBR red luminescence, cell number.

The list shows a part of the results. Shown are side measurements of this screen, not its main read-out; they come without a call. The list favours compounds with an active or inconclusive main result. The note in brackets gives the kind of curve behind each potency; many fits are weak.

Regarding `COc1cc(/C=C2/SC(=S)N(CCC(=O)Nc3ccccc3)C2=O)cc(OC)c1OC`, the AC50 under setting [1] is 14.1 µM [falling, single point].

Regarding `Cc1ccccc1NC(=O)COc1ccc(Br)cc1C`, the AC50 under setting [1] was 0.58 µM [rising, partial curve, poor fit].

With `C[C@H]1CN([C@@H](C)CO)C(=O)c2cc(NC(=O)C3CCCCC3)ccc2O[C@H]1CN(C)S(=O)(=O)c1ccccc1`, the AC50 under setting [1] was 0.184 µM [rising, full curve, poor fit].

As for `C=CCn1c(SCCC)nc(O)cc1=O`, under setting [1], the AC50 was 29.1 µM [falling, single point].

With `CCCCCCCCCCCCN1C(=O)CSC1c1cccnc1` (stereo not given), the AC50 under setting [1] was 35.5 µM [falling, single point].

For `COc1ccccc1N=Cc1c(C)c(C#N)c2[nH]c3ccccc3n2c1=O`, the AC50 under setting [1] was 22.4 µM [falling, single point].

Regarding `CCCC/C(O)=C1\C(=O)CCCC1=NCCc1c(C)[nH]c2ccccc12`, the AC50 under setting [1] was 22.4 µM [falling, single point].

For `COc1ccc(OC)c(NC(=O)CSC2=Nc3ccccc3C3=NC(CC(=O)NCc4ccc5c(c4)OCO5)C(=O)N23)c1` (stereo not given), the AC50 under setting [1] was 35.5 µM [falling, single point].

Take `O=C(OCc1ccccc1)c1ccccc1O`: the AC50 under setting [1] is 29.1 µM [rising, single point].

`O=C1CSC(=S)N1c1ccc(F)cc1`: under setting [1], the AC50 is 35.5 µM [falling, single point].

For `CCOC(=O)c1c(C)oc2ccc(NS(=O)(=O)c3ccc4c5c(cccc35)C(=O)N4)cc12`, the AC50 under setting [1] was 18.4 µM [falling, single point].

As for `CCc1cc2c(=O)n(Cc3ccco3)c(SCc3c(C)noc3C)nc2s1`, the AC50 under setting [1] was 29.1 µM [falling, single point].

Regarding `O=C(Nc1nnc(S(=O)(=O)N2CCOCC2)s1)c1ccccc1`, the AC50 under setting [1] was 6.31 µM [rising, single point].

Consider `N#Cc1nc(Cc2ccccc2)oc1N1CCCC1`, for which, under setting [1], the AC50 is 5.62 µM [rising, full curve, poor fit].

For `COc1ccc2c(c1)-c1nc(/N=C/c3c(O)ccc4ccccc34)sc1CC2`, the AC50 under setting [1] was 4.61 µM [falling, full curve].

As to `COc1cc2c(cc1NC(=O)CSc1nnc(Cc3cccs3)n1Cc1ccco1)oc1ccccc12`, under setting [1], the AC50 was 0.146 µM [falling, full curve].

Regarding `CCN(CCCNC(=O)c1ccc2c(c1)NC(=O)CN2C)c1cccc(C)c1`, the AC50 under setting [1] is 10 µM [falling, partial curve].

As to `Cc1cc(O)c(-c2cc(C(=O)NCCc3ccc(S(N)(=O)=O)cc3)[nH]n2)cc1C`, under setting [1], the AC50 was 12.6 µM [rising, single point].

For `O=C(N/N=C/c1ccc(O)cc1O)NC12CC3CC(CC(C3)C1)C2`, the AC50 under setting [1] is 7.94 µM [falling, partial curve].

Consider `COc1ccc(CCNC(=O)CCCOc2cc(=O)n(C)c3ccccc23)cc1OC`, for which the AC50 under setting [1] was 1.78 µM [rising, full curve].

In the case of `CNc1ccc(S(=O)(=O)NC)cc1[N+](=O)[O-]`, the AC50 under setting [1] is 35.5 µM [rising, partial curve, poor fit].

For `O=C(CCN1CCOCC1)c1ccc(Br)cc1`, the AC50 under setting [1] is 35.5 µM [falling, single point].

For the compound `NC(=O)c1ccccc1OCc1nc2ccccc2s1`, the AC50 under setting [1] is 11.2 µM [falling, partial curve, poor fit].

`O=S(=O)(c1ccc(SCCO)nc1)N1CCOCC1`: the half-maximal activity concentration (AC50) under setting [1] is 1.16 µM [falling, partial curve, poor fit].

As to `O=[N+]([O-])c1ccc(S(=O)(=O)Nc2cccc(-c3ccc(N4CCCC4)nn3)c2)cc1`, the AC50 under setting [1] is 23.1 µM [rising, single point].

For the compound `CC(=O)c1cccc(NC(=O)Cc2cccs2)c1`, the AC50 under setting [1] was 4.47 µM [rising, partial curve, poor fit].

Regarding `Cc1csc(NC(=O)CCC(=O)c2cccs2)n1`, the AC50 under setting [1] was 35.5 µM [falling, single point].

In the case of `O=C(Nc1nc(-c2ccncc2)cs1)c1ccc(S(=O)(=O)N2CCOCC2)cc1`, the AC50 under setting [1] is 2.82 µM [falling, partial curve].

In the case of `CC1=NN(C(=O)CSCc2ccccc2)C(O)(c2ccc(F)cc2)C1` (stereo not given), the AC50 under setting [1] is 0.562 µM [falling, full curve].

As to `Cc1ccc(NC(=O)CN2C(=O)S/C(=C/c3ccc(O)c([N+](=O)[O-])c3)C2=O)cc1C`, the AC50 under setting [1] is 1.26 µM [falling, full curve].

As for `O=C(COc1ccc2c3c(c(=O)oc2c1)CCC3)NCc1ccncc1`, the AC50 under setting [1] was 2.82 µM [rising, full curve, poor fit].

As to `Cc1[nH]c(C)c(C(=O)/C=C/c2ccc([N+](=O)[O-])cc2)c1C`, the AC50 under setting [1] is 20 µM [falling, single point].

Take `CCOc1ccc(/C=C2/SC(=S)N(CCC(=O)Nc3ccc(C(=O)O)cc3)C2=O)cc1`: the AC50 under setting [1] is 11.2 µM [falling, partial curve, poor fit].

Consider `COc1cc(/C=C/c2[nH]c(=O)[nH]c(=O)c2[N+](=O)[O-])cc(OC)c1O`, for which, under setting [1], the AC50 was 35.5 µM [rising, single point].

For the compound `Cn1c(=O)c2c(ncn2CCC(=O)N/N=C/c2ccncc2)n(C)c1=O`, under setting [1], the AC50 was 2 µM [rising, full curve, poor fit].

For the compound `CN(C1CCCCC1)S(=O)(=O)Cc1ccccc1`, the AC50 under setting [1] is 35.5 µM [rising, single point].

As for `O=C(Nc1ccc(Cl)cc1F)c1ccc(COc2c(F)c(F)c(F)c(F)c2F)o1`, under setting [1], the AC50 is 4.47 µM [falling, partial curve, poor fit].

In the case of `Cc1[nH]n(C(N)=S)c(=O)c1N=Nc1ccccc1C(F)(F)F`, the AC50 under setting [1] is 0.891 µM [rising, full curve, poor fit].

Consider `O=C(O)c1cccnc1SCc1cccc(Br)c1`, for which, under setting [1], the AC50 is 8.91 µM [rising, partial curve, poor fit].

In the case of `Cc1cc2nc3c(c(C(F)(F)F)n2n1)CCCC3`, the AC50 under setting [1] was 17.8 µM [rising, partial curve, poor fit].

Take `O=C(NCCc1ccc2c(c1)OCCO2)c1ccccc1F`: under setting [1], the AC50 is 8.2 µM [falling, partial curve, poor fit].

With `C#CCn1c(=NC(=O)c2ccc(S(=O)(=O)N3CCc4ccccc4C3)cc2)sc2cc(S(N)(=O)=O)ccc21`, the AC50 under setting [1] is 5.8 µM [rising, single point] and the AC50 (measured here: IkBa-CBG green luminescence) is 6.51 µM [falling, single point].

As to `COc1cccc(C(=O)Nc2c(F)cccc2F)c1`, the AC50 under setting [1] is 6.31 µM [falling, full curve, poor fit].

For `CC1CCCN(c2ccc(/C=C(\C#N)c3nn(-c4ccccc4)c(N)c3C#N)cc2[N+](=O)[O-])C1` (stereo not given), under setting [1], the AC50 is 3.55 µM [rising, partial curve].

Turning to `O=C(NCc1ccco1)c1cc2c(s1)CCCCC2`, under setting [1], the AC50 was 13 µM [falling, partial curve, poor fit].

`CCc1ccc(C(=O)Nc2ccc(OC)c(S(=O)(=O)N3CCCCC3)c2)cc1`: the AC50 under setting [1] is 23.1 µM [falling, partial curve, poor fit].

For the compound `COc1cccc(-n2c(=O)n(Cc3ccccc3)c(=O)c3[nH]cnc32)c1C`, the AC50 under setting [1] is 11.2 µM [rising, partial curve].

As to `Cc1ccc(NC(=O)C2C(=O)N(CCO)C3(C)CC2c2ccccc2O3)cc1` (stereo not given), the AC50 under setting [1] was 29.1 µM [rising, single point].

Take `CN(C)c1ccc(C(=O)/C=C/c2ccccc2)cc1`: under setting [1], the AC50 is 2 µM [falling, full curve].

With `O=C(COc1ccc2ccc(=O)oc2c1)c1ccccc1`, under setting [1], the AC50 is 12.6 µM [falling, single point].

Consider `COC(=O)C1=C(C)NC(C)=C(C(=O)OC)C1c1ccc(OC(=O)c2ccco2)cc1`, for which the AC50 under setting [1] is 35.5 µM [falling, single point].

As to `O=C(Nc1ccc(F)cc1)C(=O)c1cn(CC(=O)N2CCOCC2)c2ccccc12`, the AC50 under setting [1] is 0.251 µM [falling, full curve].

With `CC(=O)N1N=C(c2ccc(C)cc2)OC1c1cccnc1` (stereo not given), under setting [1], the AC50 was 5.62 µM [rising, full curve, poor fit].

On to `COc1ccc(/C(C)=N/Nc2cccc(C(=O)O)c2)cc1OC`, for which the AC50 under setting [1] was 1.41 µM [falling, full curve].

In the case of `CCCC(=O)Nc1nc(C)c(-c2csc(Nc3ccccc3C)n2)s1`, the AC50 under setting [1] is 0.708 µM [rising, full curve, poor fit].

Regarding `COc1ccc(/C=C/C(=O)Nc2ccccc2C(F)(F)F)cc1OC`, the AC50 under setting [1] is 14.1 µM [falling, partial curve, poor fit].

`Clc1ccc(-c2nc3ncccn3c2Nc2ccc3c(c2)OCO3)cc1`: the AC50 under setting [1] was 35.5 µM [falling, single point].

With `Cc1ccc(C)c(S(=O)(=O)N2CCCC2CNC(=O)C(=O)NCC2CCCO2)c1` (stereo not given), the AC50 under setting [1] is 8.2 µM [rising, partial curve, poor fit].

With `CCOC(=O)c1cc2c(C)[nH]c(C)c2cc(C(=O)OCC)c1=O`, the AC50 under setting [1] is 3.98 µM [rising, single point].

Regarding `CCn1c(=O)n(CC)c2cc(S(=O)(=O)Nc3c(C)cccc3C)ccc21`, under setting [1], the AC50 is 3.26 µM [rising, single point].

Take `COc1cc(C(=O)N/N=C/c2ccc(OC(=O)c3cccc(C)c3)c(OC)c2)ccc1O`: the AC50 under setting [1] was 7.94 µM [rising, partial curve, poor fit].

Turning to `CC1(C(=O)OCC(=O)Nc2ncc(Cl)cc2Cl)CC1(Cl)Cl` (stereo not given), the AC50 under setting [1] was 9.2 µM [rising, partial curve, poor fit].

On to `COc1ccc(C(=O)Nc2nc3ccccc3[nH]2)cc1OC`, for which the AC50 under setting [1] is 8.2 µM [falling, partial curve].

In the case of `COc1ccc(C(CNC(=O)C(C)c2ccc3cc(OC)ccc3c2)N(C)C)cc1` (stereo not given), the AC50 under setting [1] was 35.5 µM [falling, single point].

(Values after PubChem BioAssay AID493014 (National Center for Advancing Translational Sciences (NCATS), 2011).)
